Data published in patent EP2090664A1.
These are yes or no findings as the source states them, for the method shown. Some results given as binding are weak or reduced against the parent protein; the word gives no strength. Values belong to the binder of their own block, whether it stands above or below them.

Columns and labels:
[1] = biological target: T1, human cystatin C (HCC) (human) (UniProt P01034); test: ELISA, biotinylated Aβ-peptides on adsorbed HCC
T1 sequence: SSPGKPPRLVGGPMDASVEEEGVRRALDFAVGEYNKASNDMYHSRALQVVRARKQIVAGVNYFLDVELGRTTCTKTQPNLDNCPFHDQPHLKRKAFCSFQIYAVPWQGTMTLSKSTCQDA

[2] = biological target: T1, human cystatin C (HCC) (human); test: summary of affinity-MS, epitope excision and ELISA results
[3] = biological target: T1, human cystatin C (HCC) (human); test: affinity experiments with Aβ-peptides on HCC (Figure 10 summary)
Biotinyl-G5-Aβ (17-28) = biological target: T2, Biotinyl-G5-Aβ (17-28); test: ELISA, adsorbed HCC-peptides with BiotinG5 Aβ (17-28)
T2 sequence (peptide, N-terminal biotin (Biotinyl-G5-)): GGGGGLVFFAEDVGSNK

binding [1]: binds
binding [2]: binds
binding [3]: binds
B1: Biotinyl-G5-Aβ (17-28) (peptide)
peptide: GGGGGLVFFAEDVGSNK
modifications: N-terminal biotin (Biotinyl-G5-)

binding (Biotinyl-G5-Aβ (17-28)): binds
B2: HCC (101-117)-peptide (peptide)
peptide: IYAVPWQGTMTLSKSTC

binding [1]: binds
B3: Biotinyl-G5-Aβ (12-40) (peptide)
peptide: GGGGGVHHQKLVFFAEDVGSNKGAIIGLMVGGVV
modifications: N-terminal biotin (Biotinyl-G5-)
